Laboratory results from the supplement of paper PMC7877785.
± gives the uncertainty stated by the source. Many of these values have a large error.

Test: self-splicing fitness, log relative to wild type (ln ratio); higher = more splicing; Tetrahymena group I intron in knt gene, E. coli kanamycin selection, DiMSum; sequences stand for … in CUCUCU…GGAGGGAAAAGUUAUCAGGCAUGCACCUGGUAGCUAGUCUUUAAACCAAUAGAUUGCAUCGGUUUAAAAGGCAAGACCGUCAAAUUGCGGGAAAGGGGUCAACAGCCGUUCAGUACCAAGUCUCAGGGGAAACUUUGAGAUGGCCUUGCAAAGGGUAUGGUAAUAAGCUGACGGACAUGGUCCUAACCACGCAGCCAAGUCCUAAGUCAACAGAUCUUCUGUUGAUAUGGAUGCAGUUCACAGACUAAAUGUCGGUCGGGGAAGAUGUAUUCUUCUCAUAAGAUAUAGUCGGACCUCUCCUUAAUGGGAGCUAGCGGAUGAAGUGAUGCAACACUGGAGCCGCUGGGAACUAAUUUGUAUGCGAAAGUAUAUUGAUUAGUUUUGGAGUACUCGUGGUCG
Method in brief: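 A randomised library covering all eight P1ex-region intron nucleotides was built with the intron in the knt kanamycin-resistance gene on pET-22b(+) and held in E. coli BL21(DE3). Cells were grown overnight at 37°C or 30°C on LB agar, with or without 25 μg/mL kanamycin, plus 100 μg/mL carbenicillin, 50 μM IPTG and 0.2% rhamnose, and pooled colonies were amplicon-sequenced on an Illumina HiSeq 2500. DiMSum fitness is the error-weighted combination of wild-type-normalised replicate fold changes, kanamycin versus none.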

| Sequence | self-splicing fitness (ln) (37 °C) | self-splicing fitness (ln) (30 °C) |
| --- | --- | --- |
| CGAGAGCAAUAUUACGAUCU | -1.18 ± 0.56 | – |
| AGAGAGCAAUAUUACGGCAC | – | -4.19 ± 0.59 |
| GGCUAGCAAUAUUACGUGCC | -2.47 ± 0.76 | – |
| CUUUAGCAAUAUUACGCUCU | -1.3 ± 0.26 | -2.15 ± 0.22 |
| GACUAGCAAUAUUACGGAAA | -0.989 ± 0.14 | -1.53 ± 0.14 |
| UCAGAGCAAUAUUACGUCCC | -0.0341 ± 0.92 | – |
| CAUGAGCAAUAUUACGAUAC | -2.61 ± 0.54 | – |
| GAGUAGCAAUAUUACGAACA | – | -0.643 ± 0.72 |
| UCAUAGCAAUAUUACGUACC | -2 ± 0.53 | -2.46 ± 0.65 |
| GUCUAGCAAUAUUACGCCAC | -1.54 ± 1.2 | -0.135 ± 1.2 |
| CAGUAGCAAUAUUACGCCGC | 0.526 ± 0.82 | – |
| UAAGAGCAAUAUUACGGCCU | -1.79 ± 0.58 | – |
| AAGAAGCAAUAUUACGGAAC | – | -3.9 ± 0.6 |
| UGCUAGCAAUAUUACGGAAC | -2.23 ± 1.1 | – |
| GGUGAGCAAUAUUACGCAAC | -2.47 ± 1.1 | – |
| ACAGAGCAAUAUUACGGGCC | -2.4 ± 0.54 | – |
| ACGGAGCAAUAUUACGAAGA | – | -3.03 ± 1.1 |
| CUAGAGCAAUAUUACGGCUC | -1.98 ± 0.51 | – |
| UGAUAGCAAUAUUACGCAAC | -1.69 ± 0.84 | – |
| CGUGAGCAAUAUUACGCGAA | -3.33 ± 0.29 | -2.35 ± 0.14 |
| AGCGAGCAAUAUUACGUUUA | – | -4.36 ± 1 |
| UCAUAGCAAUAUUACGGCGC | -1.47 ± 0.87 | – |
| GCUCAGCAAUAUUACGAGGU | -2.08 ± 0.23 | -1.06 ± 0.12 |
| UGCCAGCAAUAUUACGUAGC | -1.64 ± 0.17 | -3.9 ± 0.37 |

| Sequence | self-splicing fitness (ln) (37 °C) | self-splicing fitness (ln) (30 °C) |
| --- | --- | --- |
| UGCUAGCAAUAUUACGCCAC | -0.44 ± 1.4 | -1.26 ± 0.6 |
| CGUUAGCAAUAUUACGAAGA | -1.1 ± 0.63 | – |
| UAAGAGCAAUAUUACGCGGC | -2.57 ± 1.1 | -3.94 ± 0.72 |
| CUUGAGCAAUAUUACGGUUC | -2.51 ± 0.36 | -3.56 ± 0.35 |
| CAGGAGCAAUAUUACGGGGC | -3.17 ± 0.74 | – |
| UUGUAGCAAUAUUACGAUGA | 0.0216 ± 0.12 | -0.47 ± 0.13 |
| CAUCAGCAAUAUUACGUGGC | -2.72 ± 0.19 | -4.41 ± 0.27 |
| UUAGAGCAAUAUUACGACUC | -2.56 ± 0.78 | – |
| CCUGAGCAAUAUUACGCGUG | -2.82 ± 0.22 | -3.05 ± 0.19 |
| CCGUAGCAAUAUUACGGCUC | -0.629 ± 0.53 | – |
| CUGUAGCAAUAUUACGUGGC | – | -4.26 ± 0.61 |
| AGAUAGCAAUAUUACGUGAC | -2.71 ± 0.48 | -3.44 ± 0.23 |
| CGCGAGCAAUAUUACGUUCC | -3.64 ± 1 | – |
| GGGCAGCAAUAUUACGAGGG | -2.39 ± 0.24 | -3.93 ± 0.34 |
| CCGGAGCAAUAUUACGCGCU | -3.19 ± 0.6 | – |
| UAUGAGCAAUAUUACGUAAC | -2.43 ± 1.1 | – |
| UUAUAGCAAUAUUACGUAAC | -0.228 ± 0.76 | -3.19 ± 0.78 |
| CUCUAGCAAUAUUACGAGUC | – | -5.49 ± 1 |
| GCAAAGCAAUAUUACGAUUC | -0.245 ± 0.1 | -1.26 ± 0.082 |
| ACAGAGCAAUAUUACGGAUA | -3.19 ± 0.6 | – |
| CGCUAGCAAUAUUACGCGUG | -1.77 ± 0.12 | -2.8 ± 0.13 |
| UUGUAGCAAUAUUACGGAUU | – | -4.8 ± 1 |
| UAUAAGCAAUAUUACGAUAC | – | -3.62 ± 0.61 |
| CGGCAGCAAUAUUACGUUAU | -2.56 ± 0.21 | -2.5 ± 0.17 |

| Sequence | self-splicing fitness (ln) (37 °C) | self-splicing fitness (ln) (30 °C) |
| --- | --- | --- |
| GUGGAGCAAUAUUACGCCAC | – | -0.86 ± 1.4 |
| CUUUAGCAAUAUUACGCUCA | -1.47 ± 0.87 | -2.02 ± 0.52 |
| CCACAGCAAUAUUACGCUGA | -3.16 ± 0.24 | -2.51 ± 0.12 |
| GGCCAGCAAUAUUACGGCAA | -0.645 ± 0.087 | -0.216 ± 0.082 |
| GAAAAGCAAUAUUACGCCCC | -1.47 ± 1.2 | -0.912 ± 0.52 |
| UAUCAGCAAUAUUACGCGCA | 0.506 ± 0.11 | -0.571 ± 0.091 |
| UCUCAGCAAUAUUACGCCAU | -6.09 ± 1 | -4.27 ± 1 |
| GGGGAGCAAUAUUACGAAUG | -2.52 ± 0.77 | -4.04 ± 1 |
| AUGGAGCAAUAUUACGAUAC | – | -4.06 ± 0.73 |
| UAUGAGCAAUAUUACGGUCC | -2.08 ± 1.1 | -4.4 ± 1 |
| AGAGAGCAAUAUUACGUCCU | -0.89 ± 0.13 | -2.25 ± 0.12 |
| GUAAAGCAAUAUUACGGAGC | -1.71 ± 0.21 | -2.47 ± 0.2 |
| AUGGAGCAAUAUUACGAACA | -2.63 ± 1.1 | – |
| CCUUAGCAAUAUUACGGAAC | – | -2.14 ± 0.6 |
| ACGGAGCAAUAUUACGGAGC | -2.53 ± 0.62 | – |
| AAUGAGCAAUAUUACGUAUG | – | -3.4 ± 0.75 |
| CAGUAGCAAUAUUACGUAAC | – | -3.47 ± 1 |
| UUAAAGCAAUAUUACGCAGC | – | -4.3 ± 0.59 |
| GAAUAGCAAUAUUACGCAGG | -2.28 ± 0.21 | -2.6 ± 0.2 |
| CGGUAGCAAUAUUACGUUAA | -2.44 ± 0.63 | -2.95 ± 0.62 |
| GUCGAGCAAUAUUACGGCAG | – | -4.14 ± 0.6 |
| UGUGAGCAAUAUUACGUGAA | – | -4.7 ± 1 |
| AGGGAGCAAUAUUACGAGGG | – | -3.93 ± 0.53 |
| ACCGAGCAAUAUUACGUCCA | – | -3.34 ± 0.74 |

| Sequence | self-splicing fitness (ln) (37 °C) | self-splicing fitness (ln) (30 °C) |
| --- | --- | --- |
| CUAGAGCAAUAUUACGAUAA | -1.3 ± 0.23 | -2.85 ± 0.21 |
| UCUAAGCAAUAUUACGGAUU | – | -4.06 ± 0.51 |
| UGUUAGCAAUAUUACGAUGC | -0.778 ± 1 | -3.61 ± 0.53 |
| GUGGAGCAAUAUUACGAGUG | – | -3.29 ± 0.53 |
| UGAGAGCAAUAUUACGCAUA | -3.38 ± 0.52 | – |
| CUGGAGCAAUAUUACGUCGU | -2.39 ± 0.22 | -3.88 ± 0.23 |
| CAGUAGCAAUAUUACGAAGA | -2.1 ± 0.41 | -2.59 ± 0.63 |
| CAAGAGCAAUAUUACGAUAC | -3.05 ± 0.74 | – |
| AAAGAGCAAUAUUACGCACA | – | -3.09 ± 0.63 |
| UCUGAGCAAUAUUACGUCUC | -1.15 ± 0.55 | -2.33 ± 0.66 |
| CGUAAGCAAUAUUACGAACG | -1.76 ± 0.22 | -3.04 ± 0.18 |
| CUUGAGCAAUAUUACGGCAA | -1.78 ± 0.66 | -1.93 ± 0.82 |
| UGACAGCAAUAUUACGCUCC | -0.275 ± 0.14 | -1.28 ± 0.13 |
| UGAUAGCAAUAUUACGCGGC | – | -2.72 ± 0.57 |
| AAGGAGCAAUAUUACGACAG | -3.61 ± 1 | -3.83 ± 1 |
| AAGUAGCAAUAUUACGAAGC | -2.66 ± 0.75 | -1.04 ± 0.67 |
| UGAGAGCAAUAUUACGAUGA | – | -2.65 ± 0.79 |
| CAAUAGCAAUAUUACGUGCU | – | -4.96 ± 0.72 |
| CCAGAGCAAUAUUACGCUUC | -4.72 ± 0.72 | – |
| GUUAAGCAAUAUUACGGUAU | -0.895 ± 0.12 | -1.36 ± 0.11 |
| AUCGAGCAAUAUUACGGUAC | – | -4.49 ± 1 |

Reprinted at random: 5 records from the list.

| Sequence | self-splicing fitness (ln) (37 °C) | self-splicing fitness (ln) (30 °C) |
| --- | --- | --- |
| CAAUAGCAAUAUUACGUGCU | – | -4.96 ± 0.72 |
| UCUGAGCAAUAUUACGUCUC | -1.15 ± 0.55 | -2.33 ± 0.66 |
| UGAGAGCAAUAUUACGAUGA | – | -2.65 ± 0.79 |
| GUGGAGCAAUAUUACGAGUG | – | -3.29 ± 0.53 |
| UCUAAGCAAUAUUACGGAUU | – | -4.06 ± 0.51 |
